According to patent US20240368049A1, “ENHANCED PHYTOREMEDIATION FROM BIOAVAILABILITY OF PER- AND POLYFLUOROALKYL SUBSTANCES IN CONTAMINATED SOIL” (The Research Foundation for the State University of New York, priority 2023, published 2024):

How the values were obtained:
Assay type in all cases: in vivo
[1] = tested on: timothy-grass (Phleum pratense); test: uptake of PFAS by timothy-grass shoots grown in biosolids-amended soil treated by a sorbent or SDS; details: for uptake of individual PFAS by shoots from soil: biosolids amended soil treated by SDS, after two cuts; for concentration of PFAS in timothy-grass shoots: Day-40; for detection of PFAS in timothy-grass shoots: Day-40 and Day-80
Description: The method uses the addition of a mobilizing reagent, at a predetermined dose as described herein, to amend the soil around a root system of one or more plants. The supplementing of the amended soil with a stabilizing reagent at a predetermined dose, as also defined below. In one embodiment, the preparation of biosolids amended soil uses a sandy loam soil used in this study (pH=7.56), which was collected from a local farm in Albany County, New York. The soil was passed through a 2-mm sieve before use. The contents of natural organic matter and total organic carbon of the sieved soil were 4.82±0.12% and 2.44±0.45%, respectively. The sieved soil was mixed with vermiculite in a 1:1 vol ratio for increasing water retention of the soil and improving soil aeration. Then, the processed soil for plant cultivation was distributed to 7-quart polypropylene containers (14.375″L×8.25″W×6″H). Each container had 1.3 kg of dry soil.
The biosolids after anaerobic digestion of sludge were collected from a nearby wastewater treatment plant close to University at Albany. The total solid and total organic carbon of the biosolids were 24.16±0.21% and 28.64±0.28%, respectively. Ten PFAS, including perfluorobutanesulfonic acid (PFBS), perfluorohexanoic acid (PFHxA), undecafluoro-2-methyl-3-oxahexanoic acid (GenX), perfluoroheptanoic acid (PFHpA), perfluorohexane sulfonate (PFHxS), perfluorooctanoic acid (PFOA), perfluorononanoic acid (PFNA), perfluorooctanesulfonic acid (PFOS), perfluorodecanoic acid (PFDA), and perfluoroundecanoic acid (PFUnA), were added to and homogenized with the biosolids, reaching the target concentration of each PFAS at 300 μg/kg dry biosolids. The mixture was then stored at 4° C. for 7 days. Afterwards, the PFAS spiked biosolids were homogenized with one sorbent (biochar, GAC, or RemBind) at 0.2 or 2 wet wt. % or a surfactant, SDS, at 10, 50 or 100 mg/kg. The biochar (Biochar Supreme, LLC, Everson, WA) was derived from forest wood waste and contained over 85% of organic carbon with a specific surface area of ˜800 m2/g. The size of the GAC (Alfa Aesar, Ward Hill, MA) ranged from 425 μm to 850 μm with a specific surface area of ˜650 m2/g. The porosity and density of the GAC were around 0.78 and 2.26 g/cm3, respectively. RemBind was gifted from AquaBlok Ltd as a distributor for RemBind® (Australia). After aging for 7 days, the biosolids with a sorbent or a surfactant were thoroughly mixed with the prepared soil at a ratio of 0.17 kg biosolids/kg of dry soil. This ratio is equivalent to 5 dry ton biosolids/acre of soil recommended by US EPA for biosolids land application. Based upon the TS of the biosolids and the spiked PFAS concentrations, there were 55.56 g of dry biosolids and 16.67 μg of each spiked PFAS in each container with 1.3 kg of dry soil.
Two sets of controls were set up as well: (1) soil amended with the original biosolids without PFAS spiking, sorbents, or surfactants (non-spiked control); (2) soil amended with PFAS spiked biosolids without any sorbents or surfactants (spiked control). Three replicates were prepared for each control and treatment.
Timothy-grass seeds were purchased from OrOlam LLC (South Miami, FL). One gram of seeds was sown evenly in each tank containing the prepared biosolids amended soil. Enough water was then added to each tank to reach 100% of field capacity. The plants were cultivated in a greenhouse and watered every day. The timothy-grass started germinating on the 5th day after sowing. On Day-40 after seed germination, the above-ground shoots of the grass in each tank were cut and rinsed thoroughly using deionized water. Around 1 g of the plant tissues from each treatment was used for chlorophyll extraction and quantification. The remaining plant shoots were freeze-dried at −37° C. for 48 h and subject to PFAS extraction and analysis. The plants after cutting were kept under the same growth condition. […]

[2] = tested on: soybean (Glycine max (L.) Merr. cv. Tohya); test: PFAS accumulation in seeds of first-generation soybean plants; details: for PFAS concentration in seeds of first-generation soybean plants: 94 days of exposure to PFAS mixture at 100 μg/kg; for PFAS accumulation in the plant seeds: exposure to individual PFOA or PFOS at 10 or 100 μg/kg, Day-94
[3] = tested on: soybean (Glycine max (L.) Merr. cv. Tohya); test: PFAS uptake by shoots and roots of first- and second-generation soybean plants (concentrations, RCF, BCF, TF); details: Day-41
[4] = tested on: soybean (Glycine max (L.) Merr. cv. Tohya); test: PFAS removal from soil by first- and second-generation soybean plants; details: Day-41
[5] = spiked control (PFAS 300 μg/kg in biosolids, no sorbent or surfactant)
[6] = biosolids-amended soil treated by SDS
[7] = biosolids-amended soil treated by different sorbents
[8] = non-spiked control (biosolids without PFAS addition)
[9] = individual PFAS only at 10 μg/kg
[10] = individual PFAS only at 100 μg/kg

Row | Structure (SMILES) | uptake of individual PFAS by shoots from soil [1] | PFAS concentration in seeds of first-generation soybean plants [2] | concentration of PFAS in timothy-grass shoots [1, 5] | concentration of PFAS in timothy-grass shoots [1, 8] | other results
1 | O=C(O)C(F)(OC(F)(F)C(F)(F)C(F)(F)F)C(F)(F)F (stereo not shown) [GenX, undecafluoro-2-methyl-3-oxahexanoic acid] | 9.91±0.49% | 0 µg/kg |  |  | 
2 | O=C(O)C(F)(F)C(F)(F)C(F)(F)F [PFBA, perfluorobutanoic acid] |  | 12.20 ± 11.44 µg/kg |  |  | 
3 | O=S(=O)(O)C(F)(F)C(F)(F)C(F)(F)C(F)(F)F [PFBS, perfluorobutanesulfonic acid] | 11.46±2.72% | 3.24 ± 2.06 µg/kg and 3.25 ± 2.05 µg/kg | 23.61 ± 1.90 µg/kg |  | 
4 | O=C(O)C(F)(F)C(F)(F)C(F)(F)C(F)(F)C(F)(F)C(F)(F)C(F)(F)C(F)(F)C(F)(F)F [PFDA, perfluorodecanoic acid] | 0% |  |  |  | detection of PFAS in timothy-grass shoots [1, 6]: not detected; detection of PFAS in timothy-grass shoots [1, 7]: not detected
5 | O=C(O)C(F)(F)C(F)(F)C(F)(F)C(F)(F)C(F)(F)C(F)(F)F [PFHpA, perfluoroheptanoic acid] | 18.66±2.47% | 0 µg/kg | 90.66 ± 6.74 µg/kg | 1.96 ± 0.29 µg/kg | 
6 | O=C(O)C(F)(F)C(F)(F)C(F)(F)C(F)(F)C(F)(F)F [PFHxA, perfluorohexanoic acid] | 46.94±6.37% | 55.66 ± 42.06 µg/kg | 217.23 ± 16.95 µg/kg | 24.70 ± 1.46 µg/kg | 
7 | O=S(=O)(O)C(F)(F)C(F)(F)C(F)(F)C(F)(F)C(F)(F)C(F)(F)F [PFHxS, perfluorohexane sulfonate] | 3.45±0.45% | 0 µg/kg | 17.61 ± 0.88 µg/kg |  | 
8 | O=C(O)C(F)(F)C(F)(F)C(F)(F)C(F)(F)C(F)(F)C(F)(F)C(F)(F)C(F)(F)F [PFNA, perfluorononanoic acid] | 0.52±0.06% |  | 1.79 ± 0.44 µg/kg |  | 
9 | O=C(O)C(F)(F)C(F)(F)C(F)(F)C(F)(F)C(F)(F)C(F)(F)C(F)(F)F [PFOA, perfluorooctanoic acid] | 3.79±0.46% | 0 µg/kg | 21.73 ± 0.59 µg/kg | 3.89 ± 2.90 µg/kg | increase of concentration in second-generation soybean shoots compared to first-generation [3, 9]: 9,452.55%; increase of concentration in second-generation soybean shoots compared to first-generation [3, 10]: 740.76%; increase of removal by second-generation compared to first-generation soybean plants ([4]; individual PFAS at 10 μg/kg): 1,748.65%; increase of removal by second-generation compared to first-generation soybean plants ([4]; individual PFAS at 100 μg/kg): 39.02%; PFAS accumulation in the plant seeds [2]: did not lead to any PFAS accumulation
10 | O=S(=O)(O)C(F)(F)C(F)(F)C(F)(F)C(F)(F)C(F)(F)C(F)(F)C(F)(F)C(F)(F)F [PFOS, perfluorooctanesulfonic acid] | 0.21±0.04% | 0 µg/kg | 1.88 ± 0.19 µg/kg | 0.70 ± 0.05 µg/kg | decrease of concentration in second-generation soybean shoots compared to first-generation [3, 9]: 55.77%; decrease of concentration in second-generation soybean shoots compared to first-generation [3, 10]: 84.83%; decrease of removal percentage by second-generation compared to first-generation soybean plants ([4]; individual PFAS at 10 μg/kg): 71.13%; decrease of removal percentage by second-generation compared to first-generation soybean plants ([4]; individual PFAS at 100 μg/kg): 88.77%; PFAS accumulation in the plant seeds [2]: did not lead to any PFAS accumulation
11 | O=C(O)C(F)(F)C(F)(F)C(F)(F)C(F)(F)C(F)(F)C(F)(F)C(F)(F)C(F)(F)C(F)(F)C(F)(F)F [PFUnA, perfluoroundecanoic acid] | 0% |  |  |  | detection of PFAS in timothy-grass shoots [1, 6]: not detected; detection of PFAS in timothy-grass shoots [1, 7]: not detected
12 | CCCCCCCCCCCCOS(=O)(=O)[O-].[Na+] [SDS, sodium dodecyl sulphate] |  |  |  |  | total removal of ΣPFAS by timothy-grass shoots after two cuts ([1]; SDS at 10 mg/kg): 8.90±1.49%; total removal of ΣPFAS by timothy-grass shoots after two cuts ([1]; SDS at 50 mg/kg): 7.24±0.41%; total removal of ΣPFAS by timothy-grass shoots after two cuts ([1]; SDS at 100 mg/kg): 9.16±0.95%

“And” between values parts separate entries of the source, which are not always exact repeats. Identical values can stand only once.
